At least one compound was matched to its structure with a doubt left.
Test system: adult mdx FDB myofibers
Test: Stretch-dependent sarcolemmal Ca2+ influx, fluo-4 fluorescence rate
Assay type: cell-based, mouse
Conditions: adult mdx FDB fibers, acute stretch, GsMTx4 2.5 μM, colchicine 10 μM
Procedure: After euthanasia by CO2 inhalation, flexor digitorum brevis (FDB) muscle was harvested bilaterally and incubated in DMEM with 1 μl/ml gentamicin, and 0.4% collagenase A (Roche Applied Science, Indianapolis, Ind., USA) as described. Single intact myofibers were isolated by gentle trituration. The fibers were imaged and/or fixed for immunolabeling within an 8-h period (unless indicated), thus avoiding morphological changes that can occur in FDB fibers that are cultured for a prolonged period. […]
Myofibers were attached at both ends by gently closing the MyoTak-coated tweezers without compressing the cell membrane and then lifting the cell from the bottom of the chamber. Cell sarcomere length was monitored using a High-speed Video Sarcomere Length camera (Aurora Scientific, Aurora, ON, CAN) and the voltage into the length controller was adjusted to produce a stretch equal to 10% of resting sarcomere length. The tension signal from the force transducer and positional output from the length controller were recorded at 1 kHz using a 600A data acquisition system from Aurora.
Similar to DCF measurements, FDBs were suspended in Ringer's solution containing 5 μM fluo-4-AM (Invitrogen, Carlsbad, Ca) for 30 minutes at room temperature. […] Fluo-4 signal slopes before stretch and after were measured.

SMILES: COC(=O)Nc1nc2ccc(C(=O)c3cccs3)cc2n1C [nocodozole]
- stretch dependent sarcolemmal Ca2+ influx: little X-ROS and Ca^2+ entry
